The list shows a part of the results. Repeats are few or missing, and single values can be far off.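 The apoptosis fraction was the count of cleaved-PARP antibody-stained nuclei relative to all DNA-stained nuclei, imaged in 1,536-well plates. Screening doses were set so most cells survived, and baseline and induced cleaved-PARP levels vary greatly across cell lines.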
Key:
Assay in all cases: cleaved PARP positive nuclei fraction relative to DMSO control; melanoma cells; higher = more apoptosis
Details in all cases: library dose: low library concentration; 72 h
MZ2-MEL = system: MZ2-MEL
MeWo = system: MeWo
RPMI7951 = system: RPMI7951
RVH-421 = system: RVH-421
SkMel28 = system: SkMel28
SkMel2 = system: SkMel2
SkMel30 = system: SkMel30
SkMel5 = system: SkMel5
UACC257 = system: UACC257
UACC62 = system: UACC62
WM115 = system: WM115
WM1716 = system: WM1716
WM1745 = system: WM1745
WM3526 = system: WM3526
WM3619 = system: WM3619
WM451Lu = system: WM451Lu

Row | SMILES | cleaved PARP positive nuclei fraction (MZ2-MEL) | cleaved PARP positive nuclei fraction (MeWo) | cleaved PARP positive nuclei fraction (RPMI7951) | cleaved PARP positive nuclei fraction (RVH-421) | cleaved PARP positive nuclei fraction (SkMel28) | cleaved PARP positive nuclei fraction (SkMel2) | cleaved PARP positive nuclei fraction (SkMel30) | cleaved PARP positive nuclei fraction (SkMel5) | cleaved PARP positive nuclei fraction (UACC257) | cleaved PARP positive nuclei fraction (UACC62) | cleaved PARP positive nuclei fraction (WM115) | cleaved PARP positive nuclei fraction (WM1716) | cleaved PARP positive nuclei fraction (WM1745) | cleaved PARP positive nuclei fraction (WM3526) | cleaved PARP positive nuclei fraction (WM3619) | cleaved PARP positive nuclei fraction (WM451Lu)
1 | CS(=O)(=O)CCNCc1ccc(-c2ccc3ncnc(Nc4ccc(OCc5cccc(F)c5)c(Cl)c4)c3c2)o1 [lapatinib] + N#Cc1c(O)c2c(-c3ccc(-c4ccccc4O)cc3)csc2[nH]c1=O [A769662] (first compound 0.8 µM, partner dose 2 µM) | 183% | 130% | 213% | 53.1% | 143% | 152% | 125% | 124% | 133% | 103% | 67.7% | 29.2% | 73.3% | 255% | 71.6% | 103%
2 | CCCS(=O)(=O)Nc1ccc(F)c(C(=O)c2c[nH]c3ncc(Cl)cc23)c1F + O=C(O)C(=O)Nc1sc2c(c1C(=O)O)CCNC2 [TCS401] (first compound 0.08 µM, partner dose 1.66667 µM) | 149% | 77.5% | 97.4% | 122% | 252% | 68.6% | 93.9% | 222% | 90.8% | 304% | 36.3% | 81.6% | 103% | 101% | 90.4% | 67.8%
3 | CS(=O)(=O)CCNCc1ccc(-c2ccc3ncnc(Nc4ccc(OCc5cccc(F)c5)c(Cl)c4)c3c2)o1 [lapatinib] + NC(=O)Nc1cc(-c2cccc(F)c2)sc1C(=O)N[C@H]1CCCNC1 [AZD7762] (first compound 0.8 µM, partner dose 0.02 µM) | 164% | 64.8% | 67.6% | 49.6% | 77.7% | 64.1% | 160% | 88.8% | 95% | 59.9% | 295% | 129% | 108% | 185% | 244% | 38.6%
4 | CS(=O)(=O)CCNCc1ccc(-c2ccc3ncnc(Nc4ccc(OCc5cccc(F)c5)c(Cl)c4)c3c2)o1 [lapatinib] + Cc1cc([N+](=O)[O-])ccc1NS(=O)(=O)c1cc(Cl)ccc1Cl [FH535] (first compound 0.8 µM, partner dose 1 µM) | 203% | 129% | 224% | 79.3% | 90% | 39.2% | 39.9% | 82.9% | 79.8% | 194% | 474% | 36.2% | 107% | 53.4% | 104% | 62.6%
5 | Cn1c(=O)n(-c2ccc(C(C)(C)C#N)cc2)c2c3cc(-c4cnc5ccccc5c4)ccc3ncc21 + NC(=O)Nc1cc(-c2cccc(F)c2)sc1C(=O)N[C@H]1CCCNC1 [AZD7762] (first compound 0.004 µM, partner dose 0.02 µM) | 78.6% | 72.8% | 111% | 84% | 128% | 45.7% | 66.9% | 151% | 211% | 75.5% | 153% | 186% | 105% | 289% | 230% | 35.5%
6 | CN1CCN(c2ccc3nc(-c4c(N)c5c(F)cccc5[nH]c4=O)[nH]c3c2)CC1 [Dovitinib] + Cc1ccc(NC(=O)c2cccc(N(C)C)c2)cc1NC(=O)c1ccc(O)cc1 [ZM336372] (first compound 0.1 µM, partner dose 2 µM) | 62.8% | 182% | 69.6% | 135% | 91.4% | 37.1% | 121% | 39% | 103% | 204% | 216% | 106% | 108% | 71.5% | 85.7% | 67.6%
7 | CS(=O)(=O)CCNCc1ccc(-c2ccc3ncnc(Nc4ccc(OCc5cccc(F)c5)c(Cl)c4)c3c2)o1 [lapatinib] + CCN(CC)CCCCNc1ncc2cc(-c3cc(OC)cc(OC)c3)c(NC(=O)NC(C)(C)C)nc2n1 [PD173074] (first compound 0.8 µM, partner dose 0.1 µM) | 84.5% | 142% | 74.3% | 28.2% | 116% | 48.7% | 40.9% | 141% | 293% | 162% | 56.1% | 418% | 95.7% | 80.6% | 101% | 36.8%
8 | O=C(O)c1ccc2c(c1)nc(Nc1cccc(Cl)c1)c1ccncc12 + O=C(Nc1ccccc1)c1cc([N+](=O)[O-])ccc1Cl [GW9662] (first compound 0.4 µM, partner dose 2 µM) | 164% | 102% | 89.9% | 117% | 210% | 84.8% | 99.9% | 140% | 169% | 63.5% | 72.3% | 293% | 99% | 165% | 106% | 81.5%
9 | C=C(c1ccc(C(=O)O)cc1)c1cc2c(cc1C)C(C)(C)CCC2(C)C [Bexarotene] + O=c1cc(-c2cccc3c2Sc2ccccc2S3)oc(N2CCOCC2)c1 [KU55933] (first compound 2 µM, partner dose 1 µM) | 198% | 21.8% | 103% | 149% | 229% | 90.9% | 147% | 267% | 20.2% | 106% | 144% | 38.8% | 85.7% | 78.3% | 88.8% | 99.5%
10 | C[C@@H](Oc1cc(-c2cnn(C3CCNCC3)c2)cnc1N)c1c(Cl)ccc(F)c1Cl [Crizotinib] + Cn1cncc1[C@@](N)(c1ccc(Cl)cc1)c1ccc2c(c1)c(-c1cccc(Cl)c1)cc(=O)n2C [tipifarnib] (first compound 0.2 µM, partner dose 0.01 µM) | 78.8% | 34.8% | 47.9% | 75.4% | 45.9% | 114% | 69.4% | 37.8% | 149% | 142% | 166% | 125% | 110% | 73.9% | 98% | 67.5%
11 | O=C(O)[C@@H]1[O][Sb](=[O])([O][Sb]2(=[O])[O][C@H]([C@H](O)CO)[C@H](O)[C@H](C(=O)O)[O]2)[O][C@H]([C@H](O)CO)[C@@H]1O (stereo partly drawn) [stibogluconate] + Cc1cc([N+](=O)[O-])ccc1NS(=O)(=O)c1cc(Cl)ccc1Cl [FH535] (first compound 2 µM, partner dose 1 µM) | 105% | 20.5% | 116% | 93.6% | 115% | 95.4% | 71.9% | 91.4% | 94% | 97.2% | 129% | 109% | 102% | 63.8% | 85.6% | 136%
12 | Cn1c(=O)n(-c2ccc(C(C)(C)C#N)cc2)c2c3cc(-c4cnc5ccccc5c4)ccc3ncc21 + O=c1cc(-c2cccc3c2Sc2ccccc2S3)oc(N2CCOCC2)c1 [KU55933] (first compound 0.004 µM, partner dose 1 µM) | 129% | 25.1% | 185% | 135% | 155% | 122% | 94.7% | 66.9% | 49.7% | 127% | 168% | 79.8% | 95.2% | 198% | 124% | 321%
13 | Nc1nc(F)nc2c1ncn2[C@@H]1O[C@H](CO)[C@@H](O)[C@@H]1O [fludarabine] + COc1ccc2c(c1)CCC1C2CCC2(C)C(NCCCCCCN3C(=O)C=CC3=O)CCC12 [U73122] (first compound 0.2 µM, partner dose 0.4 µM) | 2020% | 625% | 91.8% | 170% | 118% | 1090% | 1190% | 247% | 65.4% | 85.8% | 291% | 126% | 162% | 3030% | 186% | 2690%
14 | CCCS(=O)(=O)Nc1ccc(F)c(C(=O)c2c[nH]c3ncc(Cl)cc23)c1F + O=S(=O)(c1ccccc1)N(CC(F)(F)F)c1ccc(C(O)(C(F)(F)F)C(F)(F)F)cc1 [T0901317] (first compound 0.08 µM, partner dose 1.4 µM) | 28.8% | 104% | 99.3% | 148% | 176% | 93.9% | 26.6% | 167% | 106% | 96.9% | 113% | 163% | 99.4% | 75.6% | 97.3% | 124%
15 | CN1CCN(c2ccc3nc(-c4c(N)c5c(F)cccc5[nH]c4=O)[nH]c3c2)CC1 [Dovitinib] + O=C(CCCCCCC(=O)Nc1ccccc1)NO [vorinostat] (first compound 0.1 µM, partner dose 0.08 µM) | 69.2% | 161% | 45.7% | 77.4% | 88% | 95.9% | 126% | 56.4% | 56.4% | 42.7% | 92.4% | 29.8% | 96.9% | 142% | 83.2% | 88.9%
16 | Cc1cc(Nc2cc(N3CCN(C)CC3)nc(/C=C/c3ccccc3)n2)n[nH]1 + O=C(O)c1ccc(-c2c[nH]c3ncc(-c4ccccc4)cc23)cc1C1CCCC1 [GSK650394] (first compound 0.04 µM, partner dose 0.16 µM) | 58.3% | 101% | 134% | 45.5% | 75.4% | 61% | 113% | 68.5% | 104% | 74.7% | 108% | 99.4% | 84.3% | 63.9% | 95.1% | 71.3%
17 | Nc1ncn([C@H]2C[C@H](O)[C@@H](CO)O2)c(=O)n1 [decitabine] + CCN(CC)CCCCNc1ncc2cc(-c3cc(OC)cc(OC)c3)c(NC(=O)NC(C)(C)C)nc2n1 [PD173074] (first compound 0.1 µM, partner dose 0.1 µM) | 134% | 85.5% | 97.8% | 113% | 105% | 113% | 169% | 78.3% | 229% | 124% | 106% | 96.6% | 84.8% | 36.1% | 89.2% | 49.5%
18 | Cc1cc(Nc2cc(N3CCN(C)CC3)nc(/C=C/c3ccccc3)n2)n[nH]1 + C[C@@H]1CCN(C(=O)CC#N)C[C@@H]1N(C)c1ncnc2[nH]ccc12 [CP690550] (first compound 0.04 µM, partner dose 1 µM) | 95.1% | 107% | 32.8% | 40.1% | 82.8% | 198% | 67.5% | 31% | 119% | 76% | 87.7% | 91.3% | 215% | 186% | 92.7% | 69.5%

Full records from above. Order of values: cleaved PARP positive nuclei fraction (MZ2-MEL) | cleaved PARP positive nuclei fraction (MeWo) | cleaved PARP positive nuclei fraction (RPMI7951) | cleaved PARP positive nuclei fraction (RVH-421) | cleaved PARP positive nuclei fraction (SkMel28) | cleaved PARP positive nuclei fraction (SkMel2) | cleaved PARP positive nuclei fraction (SkMel30) | cleaved PARP positive nuclei fraction (SkMel5) | cleaved PARP positive nuclei fraction (UACC257) | cleaved PARP positive nuclei fraction (UACC62) | cleaved PARP positive nuclei fraction (WM115) | cleaved PARP positive nuclei fraction (WM1716) | cleaved PARP positive nuclei fraction (WM1745) | cleaved PARP positive nuclei fraction (WM3526) | cleaved PARP positive nuclei fraction (WM3619) | cleaved PARP positive nuclei fraction (WM451Lu)
CS(=O)(=O)CCNCc1ccc(-c2ccc3ncnc(Nc4ccc(OCc5cccc(F)c5)c(Cl)c4)c3c2)o1 [lapatinib] + CCN(CC)CCCCNc1ncc2cc(-c3cc(OC)cc(OC)c3)c(NC(=O)NC(C)(C)C)nc2n1 [PD173074] (first compound 0.8 µM, partner dose 0.1 µM) is listed with 84.5% | 142% | 74.3% | 28.2% | 116% | 48.7% | 40.9% | 141% | 293% | 162% | 56.1% | 418% | 95.7% | 80.6% | 101% | 36.8%
C=C(c1ccc(C(=O)O)cc1)c1cc2c(cc1C)C(C)(C)CCC2(C)C [Bexarotene] + O=c1cc(-c2cccc3c2Sc2ccccc2S3)oc(N2CCOCC2)c1 [KU55933] (first compound 2 µM, partner dose 1 µM) is listed with 198% | 21.8% | 103% | 149% | 229% | 90.9% | 147% | 267% | 20.2% | 106% | 144% | 38.8% | 85.7% | 78.3% | 88.8% | 99.5%
